Results taken from paper PMC12552961.
No constants are given. Whether binding was seen depends on the method and setting. Binding seen in cells or lysates may run through a third protein. A yes stands for co-enrichment or nearness to the bait. Other partners may have been found.

Protein sequences, listed by entry. Tags and fused reporters are not part of them.
UniProt Q6ZSJ8: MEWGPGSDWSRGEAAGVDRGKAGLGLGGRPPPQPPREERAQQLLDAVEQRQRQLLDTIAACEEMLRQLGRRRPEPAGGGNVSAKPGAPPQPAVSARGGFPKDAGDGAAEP
UniProt Q96SB4: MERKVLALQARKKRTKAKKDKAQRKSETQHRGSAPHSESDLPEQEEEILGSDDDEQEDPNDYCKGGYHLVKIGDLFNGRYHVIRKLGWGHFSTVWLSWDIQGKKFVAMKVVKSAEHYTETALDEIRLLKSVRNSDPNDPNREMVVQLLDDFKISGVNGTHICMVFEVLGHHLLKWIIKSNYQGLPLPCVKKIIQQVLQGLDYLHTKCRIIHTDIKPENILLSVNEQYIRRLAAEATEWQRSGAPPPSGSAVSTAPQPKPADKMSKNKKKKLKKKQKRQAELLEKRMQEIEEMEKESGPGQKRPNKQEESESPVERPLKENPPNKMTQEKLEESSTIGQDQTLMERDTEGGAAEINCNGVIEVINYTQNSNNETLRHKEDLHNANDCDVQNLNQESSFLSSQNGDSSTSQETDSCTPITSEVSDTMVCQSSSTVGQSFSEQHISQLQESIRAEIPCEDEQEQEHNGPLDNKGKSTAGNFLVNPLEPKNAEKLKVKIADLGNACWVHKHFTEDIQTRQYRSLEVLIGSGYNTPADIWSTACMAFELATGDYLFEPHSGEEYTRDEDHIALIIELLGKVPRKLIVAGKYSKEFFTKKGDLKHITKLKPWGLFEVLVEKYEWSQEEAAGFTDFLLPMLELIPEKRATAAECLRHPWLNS

Target: GFP-C1orf122 (Chromosome 1 open reading frame 122) (UniProt Q6ZSJ8)
Assay: affinity purification with mass spectrometry; GFP-Control or GFP-C1orf122 transfected into 293T cells, IP-MS

binding: binds
Substance: serine/arginine-rich protein-specific kinase 1 (SRPK1), endogenous in 293T cells (from UniProt Q96SB4 1-655) (enzyme)
